Test results reported in paper doi:10.1101/123703.

Chains of the proteins cited; added tags and fusions are not shown. Lines headed by an entry give the natural chain unless they say otherwise; changes in a name come on top.
UniProt Q9M310: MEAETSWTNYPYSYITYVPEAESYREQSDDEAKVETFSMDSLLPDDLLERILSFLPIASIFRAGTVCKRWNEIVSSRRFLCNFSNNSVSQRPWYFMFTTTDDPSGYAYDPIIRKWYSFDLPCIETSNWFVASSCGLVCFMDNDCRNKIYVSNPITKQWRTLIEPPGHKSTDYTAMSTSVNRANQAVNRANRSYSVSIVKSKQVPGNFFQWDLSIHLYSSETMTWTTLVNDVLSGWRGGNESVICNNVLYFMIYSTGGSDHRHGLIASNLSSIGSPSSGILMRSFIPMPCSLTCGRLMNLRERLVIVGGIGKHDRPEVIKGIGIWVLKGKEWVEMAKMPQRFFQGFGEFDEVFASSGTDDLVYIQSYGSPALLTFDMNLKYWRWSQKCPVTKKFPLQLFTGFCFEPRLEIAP

Target: HWS, yeast two-hybrid fusion (Arabidopsis thaliana) (UniProt Q9M310)
Assay: two-hybrid

B1: full-length AGO1, yeast two-hybrid fusion (protein, UniProt O04379 1-1048)
chain: MVRKRRTDAPSEGGEGSGSREAGPVSGGGRGSQRGGFQQGGGQHQGGRGYTPQPQQGGRGGRGYGQPPQQQQQYGGPQEYQGRGRGGPPHQGGRGGYGGGRGGGPSSGPPQRQSVPELHQATSPTYQAVSSQPTLSEVSPTQVPEPTVLAQQFEQLSVEQGAPSQAIQPIPSSSKAFKFPMRPGKGQSGKRCIVKANHFFAELPDKDLHHYDVTITPEVTSRGVNRAVMKQLVDNYRDSHLGSRLPAYDGRKSLYTAGPLPFNSKEFRINLLDEEVGAGGQRREREFKVVIKLVARADLHHLGMFLEGKQSDAPQEALQVLDIVLRELPTSRYIPVGRSFYSPDIGKKQSLGDGLESWRGFYQSIRPTQMGLSLNIDMSSTAFIEANPVIQFVCDLLNRDISSRPLSDADRVKIKKALRGVKVEVTHRGNMRRKYRISGLTAVATRELTFPVDERNTQKSVVEYFHETYGFRIQHTQLPCLQVGNSNRPNYLPMEVCKIVEGQRYSKRLNERQITALLKVTCQRPIDREKDILQTVQLNDYAKDNYAQEFGIKISTSLASVEARILPPPWLKYHESGREGTCLPQVGQWNMMNKKMINGGTVNNWICINFSRQVQDNLARTFCQELAQMCYVSGMAFNPEPVLPPVSARPEQVEKVLKTRYHDATSKLSQGKEIDLLIVILPDNNGSLYGDLKRICETELGIVSQCCLTKHVFKMSKQYMANVALKINVKVGGRNTVLVDALSRRIPLVSDRPTIIFGADVTHPHPGEDSSPSIAAVVASQDWPEITKYAGLVCAQAHRQELIQDLFKEWKDPQKGVVTGGMIKELLIAFRRSTGHKPLRIIFYRDGVSEGQFYQVLLYELDAIRKACASLEAGYQPPVTFVVVQKRHHTRLFAQNHNDRHSVDRSGNILPGTVVDSKICHPTEFDFYLCSHAGIQGTSRPAHYHVLWDENNFTADGLQSLTNNLCYTYARCTRSVSIVPPAYYAHLAAFRARFYMEPETSDSGSMASGSMARGGGMAGRSTRGPNVNAAVRPLPALKENVKRVMFYC
binding: no binding

These are yes or no findings as the source states them, for the method shown. Where a sequence is shown, tags or fusion partners need not be part of it.
